Measured data: PubChem BioAssay AID743454 (Peter MacCallum Cancer Centre, 2014)
Screen: 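Genes whose loss kills vorinostat-resistant colon cancer cells under vorinostat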 (primary screen). System: human HCT116-VR colon cancer cells, selected for vorinostat resistance. Knock-down reagent: siRNA pool against human genes, 40 nM siRNA pool. Time to read-out: vorinostat for 24 h, read-out about 72 h after transfection. Treatment: vorinostat at 2.5 µM final. Measured: 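Two measures, CellTiter-Fluor viability and luminescent caspase 3/7 activity, each as fold change against same-plate mock wells, mean of duplicates, then screen-wide robust z-score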. Direction: viability robust z-score: higher = more viable cells than screen typical; caspase robust z-score: higher = more caspase 3/7 activity than screen typical. Active means: 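a knock-down is a hit when classed RV1 or RV2 for lowered viability, or CA1 or CA2 for caspase activation; those lethal without drug were dropped; hits were retested singly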.
The deposit covers about 18,000 reagents; shown is a part drawn at random. 450 of them (2.5%) count as active. 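Single biological run; no consistent viability z cut-off exists, so the class columns, not z-scores, define the calls.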 Entries without a mark were called inactive.

gene symbol,viability hit class,caspase hit class,viability robust z-score,caspase robust z-score
AKR1C3,no change,no change,-0.24,1.7
PSMB9,no change,no change,-0.9,2.31
NAIP,no change,no change,-0.29,-0.26
GNGT2,no change,no change,-1.04,0.88
CACHD1,no change,no change,-0.37,-0.6
SALL4,no change,no change,0.79,0.34
KRT16,no change,no change,1.57,-0.72
SRRM2,no change,no change,0.3,1.64
TOP1,no change,no change,0.49,-0.13
TM9SF3,no change,no change,0.99,0.05
SLC51B,no change,no change,0.3,1.81
ENPEP,no change,no change,0.5,-0.5
OTUD7A,no change,no change,-2.98,2.59
DTD2,no change,no change,0.08,-0.97
CLEC1B,no change,no change,-0.5,0.95
TMEM41A,no change,no change,-1.23,3.2
GSDME,no change,no change,-0.48,-0.5
MRPS31,no change,no change,-0.26,-0.55
CYB5R3,no change,no change,-1.18,1.27
CC2D2A,no change,no change,0.42,3.49
OR11G2,no change,no change,0.92,0.52
TLX2,no change,no change,-2.56,3.42
IMP4,no change,no change,-1.68,-1.06
ARSB,no change,no change,0.18,-0.08
FANCE,no change,no change,-1.62,2.22
GSN,no change,no change,0.46,1.02
TRAP1,no change,no change,0.05,-0.87
EPS8L1,no change,no change,-0.73,0.3
CPNE2,no change,no change,0.25,-1.21
EPRS1,no change,no change,-1.8,0.76
EMP1,no change,no change,1.18,0.02
MOV10L1,no change,no change,0.04,0.64
SLC29A4,no change,no change,0.74,2.05
CYLD,no change,no change,-0.08,-0.48
HUS1,no change,no change,1.06,3.44
EXD3,no change,no change,-0.21,-0.58
SDF2,no change,no change,-0.27,-0.12
CCT6A,no change,no change,-1.6,3.25
KIAA2013,no change,no change,-2.14,3.08
PHF13,no change,no change,0.61,1
CHEK2,no change,no change,0.84,0.08
BMPR2,no change,no change,1.86,-0.4
ZNF491,no change,no change,0.86,-0.78
WDR45B,no change,no change,0.09,-0.56
EPM2A,no change,no change,-0.14,-0.55
TMPRSS11D,no change,no change,0.03,-1.07
TREML1,no change,no change,-1.06,1.43
LRP2BP,no change,no change,-2.12,0.52
PIEZO1,no change,no change,-0.2,1.31
UBA6,no change,no change,-0.66,0.57
VCL,no change,no change,0.21,2.15
TFPI,no change,no change,0.34,-1.18
MACROD1,no change,no change,1.77,-0.88
SGCB,no change,no change,-0.1,0.4
ARHGDIA,no change,no change,-0.78,-1.06
ISCU,no change,no change,-0.92,0.38
ZNF253,no change,no change,0.52,-0.46
